# From PubChem BioAssay AID1671190 (National Center for Advancing Translational Sciences (NCATS), 2021)
# Sequences of proteins named here, by UniProt entry; tags and fusion partners are left off. A change or cut given only in a name is not applied to a line headed by its entry.
# UniProt P18054: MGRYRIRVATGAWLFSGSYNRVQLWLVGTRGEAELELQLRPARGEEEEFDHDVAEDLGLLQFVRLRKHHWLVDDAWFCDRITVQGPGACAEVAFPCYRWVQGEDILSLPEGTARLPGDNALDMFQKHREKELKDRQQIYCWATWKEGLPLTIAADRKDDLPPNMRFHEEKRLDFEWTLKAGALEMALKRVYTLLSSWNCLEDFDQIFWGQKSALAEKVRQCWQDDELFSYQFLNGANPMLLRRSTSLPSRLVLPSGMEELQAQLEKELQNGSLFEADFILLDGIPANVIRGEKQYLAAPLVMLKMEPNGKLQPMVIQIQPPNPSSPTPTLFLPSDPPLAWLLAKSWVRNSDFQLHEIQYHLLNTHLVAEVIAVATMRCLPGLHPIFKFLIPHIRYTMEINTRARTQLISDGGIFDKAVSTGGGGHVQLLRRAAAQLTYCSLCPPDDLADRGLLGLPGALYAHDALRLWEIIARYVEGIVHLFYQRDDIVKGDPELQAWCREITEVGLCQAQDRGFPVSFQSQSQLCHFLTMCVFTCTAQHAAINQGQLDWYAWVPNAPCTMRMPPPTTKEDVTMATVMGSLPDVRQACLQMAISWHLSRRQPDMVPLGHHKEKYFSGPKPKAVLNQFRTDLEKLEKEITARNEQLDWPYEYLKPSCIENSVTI
# Among all 580,000 compounds or so, about 6,100 (1.1%) were called active. Inconclusive means that the source gave no clear call. Such entries were picked first, then a sample of the others. Calls come from the whole dose curve; as a rule, active = well fitted inhibition curve with a large enough effect; inconclusive = small, poorly fitted or top-dose-only effect, or another doubt; inactive = no such curve, though single readings can be large or run the other way. Potencies of inconclusive entries are doubtful fits and often do not repeat.
# Target: Polyunsaturated fatty acid lipoxygenase ALOX12 (Homo sapiens) (UniProt P18054)
# Experiment: Primary qHTS assay for inhibitors of human arachidonate 12S-lipoxygenase (ALOX12): Round 2
# Settings: purified 12hLO, xylenol orange hydroperoxide absorbance; series mostly up to 108 µM
# Procedure, shortened: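 Hydroperoxide product was detected by ferrous iron/xylenol orange as the 573 to 405 nm absorbance ratio. Arachidonic acid at 40 uM (final) was turned over for 30 min at room temperature by 150 nM human 12hLO, pH 7.0 Hepes buffer, after 15 min compound preincubation.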
# Potency is the fitted concentration of half-maximal effect.
row,Compound,Potency
1,CC(=O)c1cccc(NC(=O)C2(c3ccccc3)CCCC2)c1,inactive
2,CCCOC1CCCN(C(=O)CCc2nnc(-c3ccc4c(c3)OCO4)o2)C1 (centres undefined),"inconclusive: 44.7 µM [inhibitor, partial curve, poor fit]"
3,N#Cc1cccc(NC(=O)c2nn(Cc3ccccc3)c(=O)c3ccccc23)c1,"inconclusive: 112 µM [inhibitor, partial curve, poor fit]"
4,Cc1nc2cnc(Oc3cccc(Cl)c3)nc2n(Cc2ccc(F)cc2)c1=O,"inconclusive: 70.8 µM [inhibitor, partial curve, poor fit]"
5,COCCN1C(=O)C(=O)/C(=C(/O)c2ccc3c(c2)OCCO3)C1c1cccc(O)c1 (centres undefined),"inconclusive: 5.62 µM [inhibitor, full curve, poor fit]"
6,CCN(CC)c1ccc(C(=S)N2CCN(c3ccccc3)CC2)cc1,inactive
7,O=C(CN1CCOCC1)NNc1c2ccccc2nc2ccccc12,"inconclusive: 112 µM [inhibitor, single point]"
8,Cc1c(C)n(Cc2ccc(Cl)cc2)c2ccc(C(=O)NCCCN3CCOCC3)cc12,"inconclusive: 100 µM [inhibitor, partial curve, poor fit]"
9,N#Cc1ccsc1NC(=O)CN1C(=O)NC2(CCCC2)C1=O,"inconclusive: 141 µM [inhibitor, partial curve, poor fit]"
10,S=C(NCC1CCCO1)Nc1ccccc1Cl (centres undefined),inactive
11,CN(C)C(=O)NCC(=O)N1C[C@@H](C(=O)O)[C@H](c2ccc3c(c2)OCO3)C1,inactive
12,CCC(C)NC(=O)C(NC(=O)c1ccc(C)cc1)C1CCN(C(=O)c2cccc(F)c2)CC1 (centres undefined),inactive
13,Cn1cnc([S+](=O)([O-])N2CCC(c3nnc4n3C(C(=O)O)CC4)CC2)c1 (centres undefined),"inconclusive: 11.2 µM [inhibitor, full curve]"
14,Cc1ccc(S(=O)(=O)NC2CC2)cc1C(=O)Nc1cccc2c1CCCC2,inactive
15,CCc1nnc2n1N=C(c1ccccc1)CS2,"inconclusive: 50.1 µM [inhibitor, partial curve, poor fit]"
16,COc1ccc(CNC(=O)c2cc3n(n2)CC(c2ccc(Cl)cc2)OC3)cc1 (centres undefined),inactive
17,C=C(C)Cn1c(N2CCN(Cc3ccccc3)CC2)nc2c1c(=O)[nH]c(=O)n2C,"inconclusive: 141 µM [inhibitor, single point]"
18,COc1ccc(C(OCC(O)CNCCc2ccc(S(N)(=O)=O)cc2)c2ccc(OC)cc2)cc1 (centres undefined),inactive
19,Cc1ccc(Cl)cc1N1CCN(S(=O)(=O)c2cccc(S(=O)(=O)N3CCCC3)c2)CC1,inactive
20,Fc1ccc(CN2CCCCCC2)c(F)c1,"inconclusive: 0.631 µM [inhibitor, full curve]"
21,NC(=O)c1cnccn1,"inconclusive: 0.153 µM [inhibitor, full curve, poor fit]"
22,Cc1ccc(S(=O)(=O)N2CCN(Cc3ccccc3Cl)CC2)cc1,"inconclusive: 1 µM [inhibitor, full curve]"

row,Compound,Potency
1,COc1ccc(NC(=O)c2cccc(N3CCCS3(=O)=O)c2)c(OC)c1,"inconclusive: 158 µM [inhibitor, partial curve, poor fit]"
2,CCCCN(C(=O)c1cc(Cl)nc2ccccc12)c1c(N)n(CCC)c(=O)[nH]c1=O,inactive
3,CC(C)Cn1cc(NC(=O)NCc2cccc(Cl)c2)c2ccccc2c1=O,"inconclusive: 89.1 µM [inhibitor, partial curve, poor fit]"
4,C#CCOCCOCCOCCNc1nc(N2CCN(C(=O)[C@H](CCCCN)n3cc(CN)nn3)CC2)nc(N2CCN(C(=O)[C@H](CC(N)=O)n3cc(C(N)[C@H](C)CC)nn3)CC2)n1 (some centres undefined),"inconclusive: 35.5 µM [inhibitor, partial curve, poor fit]"
5,Cc1ccc(C2CC(=O)NC(SCC(=O)OCc3ccccc3)=C2C#N)o1 (centres undefined),"inconclusive: 70.8 µM [inhibitor, partial curve, poor fit]"
6,CCNC(=O)CN(CC)c1nc(C(F)(F)F)nc2ccccc12,"inconclusive: 158 µM [inhibitor, partial curve, poor fit]"
7,CC(C)(C)n1nnnc1SCc1coc(-c2ccccc2)n1,"inconclusive: 6.31 µM [inhibitor, full curve]"
8,COc1ccccc1NC(=O)c1ccc(NC(=O)CSc2n[nH]c(N)n2)cc1,inactive
9,Cc1noc(NS(=O)(=O)c2ccc(N/C=C\C(=O)c3ccc4c(c3)OCO4)cc2)c1C,"inconclusive: 35.5 µM [inhibitor, full curve, poor fit]"
10,CC1(C)CC(=O)C2=C(C1)OC(N)=C(C#N)[C@@H]2c1ccccc1[N+](=O)[O-],inactive
11,Cn1c(=O)c2c(ncn2CC(=O)N/N=C/C(Br)=C/c2ccccc2)n(C)c1=O,inactive
12,CO[C@@H]1[C@H](OC(=O)/C=C/C=C/C=C/C=C/C(=O)O)CC[C@]2(CO2)[C@H]1[C@@]1(C)O[C@@H]1CC=C(C)C,"inconclusive: 50.1 µM [inhibitor, full curve, poor fit]"
13,O=c1[nH]cccc1NS(=O)(=O)c1ccccc1F,"inconclusive: 8.91 µM [inhibitor, full curve, poor fit]"
14,C#CCOCCOCCOCCNc1nc(N2CCN(C(=O)[C@H](C(C)C)n3cc(CCO)nn3)CC2)nc(N2CCN(C(=O)[C@H]([C@@H](C)CC)n3cc(CCCCN)nn3)CC2)n1,"inconclusive: 39.8 µM [inhibitor, partial curve, poor fit]"
15,CC(=O)c1ccc(N2CCN(C(=O)c3ccco3)CC2)c(F)c1,inactive
16,CCOC(=O)c1sc(Nc2nc3cc4c(cc3s2)OCO4)cc1C,inactive
17,Cc1ccc(C)c(-c2cc(C(=O)NNC(=S)NCC(C)C)c3ccccc3n2)c1,"inconclusive: 79.4 µM [inhibitor, partial curve, poor fit]"
18,CCN(CC)c1ccc(NC(=O)CN2CCN(CC(=O)Nc3ccc(Cl)cc3)CC2)cc1,"inconclusive: 112 µM [inhibitor, partial curve, poor fit]"
19,Cc1cc(CN(C)C(=O)c2cc(COc3ccc(C)c(C)c3)on2)on1,inactive
20,CC(NS(=O)(=O)c1ccc(Cl)cc1)C(c1cccs1)N1CCN(C)CC1 (centres undefined),"inconclusive: 126 µM [inhibitor, partial curve, poor fit]"
21,CCc1ccc(N2CCC(CN)C2)cc1 (centres undefined),"inconclusive: 1.26 µM [inhibitor, full curve, poor fit]"
22,C[C@@H](C(=O)Nc1ccc(N(C)C)cc1)n1nnc2ccccc2c1=O,"inconclusive: 100 µM [inhibitor, single point]"

# Part of the list above in order of molecular weight, low to high:
row,Compound,Potency
20,Fc1ccc(CN2CCCCCC2)c(F)c1,"inconclusive: 0.631 µM [inhibitor, full curve]"
19,Cc1cc(CN(C)C(=O)c2cc(COc3ccc(C)c(C)c3)on2)on1,inactive
3,CC(C)Cn1cc(NC(=O)NCc2cccc(Cl)c2)c2ccccc2c1=O,"inconclusive: 89.1 µM [inhibitor, partial curve, poor fit]"
14,Cc1ccc(S(=O)(=O)NC2CC2)cc1C(=O)Nc1cccc2c1CCCC2,inactive
17,Cc1ccc(C)c(-c2cc(C(=O)NNC(=S)NCC(C)C)c3ccccc3n2)c1,"inconclusive: 79.4 µM [inhibitor, partial curve, poor fit]"

# Further compounds

row,Compound,Potency
1,CS(=O)(=O)c1nsc2nc(=O)c(/C=C3\C=Nc4ccccc43)c(N)n12,"inconclusive: 39.8 µM [inhibitor, partial curve, poor fit]"
2,CCOC(=O)c1c(-c2ccccc2)oc2ccc(O)c(CN3CCN(C)CC3)c12,"inconclusive: 44.7 µM [inhibitor, partial curve, poor fit]"
3,COc1ccc(C(=O)/C=C/c2cccc(F)c2)cc1CSCC(=O)O,"inconclusive: 50.1 µM [inhibitor, partial curve, poor fit]"
4,O=S(=O)(c1ccc2c(c1)OCCO2)c1nc(-c2ccco2)oc1NC1CC1,"inconclusive: 25.1 µM [inhibitor, partial curve, poor fit]"
5,CSc1nn(-c2ccc(C(=O)OCC(=O)NC(=O)NC(C)C)cc2)c(=S)s1,inactive
6,COc1ccc(C2C(=O)N(C3CCCCC3)CC(=O)N2Cc2ccco2)cc1 (centres undefined),"inconclusive: 126 µM [inhibitor, single point]"
7,CCNC(=S)Nc1ccc(OC(F)(F)F)cc1,"inconclusive: 79.4 µM [inhibitor, partial curve, poor fit]"
8,CN(C(=O)c1cc(C(=O)N(C)c2ccccc2)cc([N+](=O)[O-])c1)c1ccccc1,inactive
9,Cc1nc(=S)n(-c2ccccc2)[nH]1,"inconclusive: 31.6 µM [inhibitor, partial curve, poor fit]"
10,O=C(NNC(=O)c1ccc(F)cc1)c1ccncc1,"inconclusive: 50.1 µM [inhibitor, full curve, poor fit]"
11,COc1ccccc1/C=C/C(=O)Nc1ccc(S(=O)(=O)Nc2cc(C)on2)cc1,"inconclusive: 44.7 µM [inhibitor, partial curve, poor fit]"
12,O=S(=O)(N/N=C/c1ccc2c(c1)OCCO2)c1ccc(Cl)cc1,"inconclusive: 56.2 µM [inhibitor, partial curve, poor fit]"
13,CCc1ccc(OCC(=O)N(CC#N)C2CC2)cc1,"inconclusive: 89.1 µM [inhibitor, single point]"
14,CC(=O)Nc1c(Cl)c(Cl)c2c(c1Cl)C(=O)c1cc(Cl)ccc1-2,"inconclusive: 2.82 µM [inhibitor, full curve, poor fit]"
15,Cc1onc(-c2ccccc2)c1C(=O)NCc1ccccc1F,inactive
16,COc1ccc(/C=N/NC(=O)Nc2cccc3nsnc23)cc1,inactive
17,COc1ccc(NC2=CC(c3ccc(F)cc3)N(c3ccc(OC)cc3)C2=O)cc1 (centres undefined),"inconclusive: 89.1 µM [inhibitor, partial curve, poor fit]"
18,CCN(C(=O)COC(=O)/C(C#N)=C/c1ccc(N(C)C)cc1)C1CCS(=O)(=O)C1 (centres undefined),"inconclusive: 70.8 µM [inhibitor, partial curve, poor fit]"
19,Cc1cc(/C=C2\SC(=S)N(Cc3ccco3)C2=O)c(C)n1-c1cccnc1,"inconclusive: 35.5 µM [inhibitor, partial curve]"
20,CCOC(=O)c1[nH]c(C)c(CNCCc2ccc(OC)c(OC)c2)c1C,"inconclusive: 0.282 µM [inhibitor, full curve, poor fit]"
